The values that follow come from PubChem BioAssay AID493014 (National Center for Advancing Translational Sciences (NCATS), 2011).

The structures appear in SMILES notation. The list shows a part of the results. The main result of the screen is listed elsewhere. These columns were measured beside it and carry no call. Most of these compounds were active or inconclusive in the main read-out, so they are no random draw. Potencies come from curve fits of mixed quality, noted in brackets.

The experiment can be described thus: qHTS Assay to Find Inhibitors of Chronic Active B-Cell Receptor Signaling. To be noted: ABC-DLBCL IkBa-CBG/CBR reporter, luminescence ratio (green luciferase fused to IkBa over red control in TMD8 lymphoma cells), 4 h. In short, it runs like this: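 TMD8 human ABC-DLBCL cells with doxycycline-inducible IκBα–green luciferase fusion and unfused red luciferase, in 0.5% FBS medium; compounds up to 46 uM, 4 h at 37C. Green/red luminescence ratio, filter-overlap corrected, fitted to concentration-response curves.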
For orientation: qHTS replaces the single test concentration by a dilution series.

The mark [1] stands for this setting: measured here: CBR red luminescence, cell number.
Where [2] appears, read: measured here: IkBa-CBG green luminescence.

On to `CCCS(=O)(=O)NCCc1sc2nc(-c3ccc(F)cc3)nn2c1C`, for which the AC50 (usually the midpoint of the concentration-response curve, whichever way the signal moves) under setting [1] was 11.2 µM [falling, partial curve, poor fit]. On the same count and under the same terms, for `Cc1ccnc(Nc2nc(-c3ccc(Cl)cc3)cs2)c1` the value was 22.4 µM [falling, single point]; for `O=C(COc1ccc(Br)cc1)NCCO`, 4.61 µM [rising, full curve, poor fit]. For the compound `O=C(Nc1ccc(F)cc1)Nc1ccc(S(=O)(=O)N2CCCC2)cc1`, the AC50 under setting [1] was 23.1 µM [falling, partial curve, poor fit]. With `CCN(CC)C(=O)CSc1nc(N)c(C(=O)Nc2ccc(OC)cc2)s1`, the AC50 under setting [1] is 2.59 µM [rising, partial curve]. `O=C(COC(=O)CC12CC3CC(CC(C3)C1)C2)Nc1cccnc1Cl`: under setting [1], the AC50 is 17.8 µM [falling, single point]. For `Cc1csc(=O)n1CC(=O)OCc1cccc2ccccc12`, the AC50 under setting [1] is 23.1 µM [rising, partial curve, poor fit].

In the case of `O=C(CCS(=O)(=O)c1ccc(Cl)cc1)NCCC1=CCCCC1`, under setting [1], the AC50 was 20 µM [rising, partial curve, poor fit]. Same read-out and setting: in the case of `C/C(CCN1CCc2nc(-c3ccccc3)c(-c3ccccc3)cc2C1)=N\OC[C@@H](C)[C@H](OCc1ccccc1)C(C)C` it was 29.1 µM [rising, partial curve, poor fit]. `CCCCNC(=O)CNC(=O)c1nn(-c2ccc(OC)c(Cl)c2)c(=O)c2ccccc12`: the AC50 under setting [1] was 3.98 µM [falling, single point].

For `COc1cc(CN2CCCC(C(=O)Nc3cccc(-n4cccn4)c3)C2)ccc1F` (stereo unspecified), the concentration at half-maximal activity (AC50) under setting [1] is 3.55 µM [falling, partial curve, poor fit].

For the compound `C[C@@H]1CCCCCCCCCCC1=O`, the AC50 under setting [1] is 0.631 µM [rising, full curve, poor fit].

`COC(=O)C(c1cc(OC)c(O)c(OC)c1)(N1CCNC(C)C1)C(F)(F)F` (stereo unspecified): the AC50 under setting [1] is 13 µM [falling, partial curve, poor fit]. Still for that read-out and setting: in the case of `COc1cc(CNC(=O)c2cccc(COc3ccc(Cl)cc3)c2)cc(OC)c1` it was 29.1 µM [falling, single point]; in that of `CC(=O)Nc1c([N+](=O)[O-])cc2[nH]c(=O)[nH]c2c1[N+](=O)[O-]`, 2 µM [falling, full curve, poor fit]. As to `Cc1ccc(CN2CCN(CC(=O)N=Nc3c(O)[nH]c4ccccc34)CC2)cc1`, the AC50 under setting [1] was 6.51 µM [rising, partial curve, poor fit]. In the case of `CCOc1cccc(-c2c(C(=O)N/N=C/c3ccc(C)s3)nnn2-c2nonc2N)c1`, the AC50 under setting [1] was 5.62 µM [rising, partial curve, poor fit]. Turning to `O=[N+]([O-])c1cc(N=Nc2ccc3ccccc3c2)ccc1O`, under setting [1], the AC50 was 0.398 µM [rising, full curve, poor fit]. The same measure, in the same setting: for `C/C(CC(=O)Nc1cc(Cl)ccc1Cl)=N\NC(=O)c1ccco1` the value was 12.6 µM [falling, partial curve, poor fit]. On to `CCc1ccc(NC(=O)COC(=O)C2(c3ccc(Cl)cc3)CCCC2)cc1`, for which the AC50 under setting [1] is 29.1 µM [falling, single point] and the AC50 under setting [2] was 29.1 µM [rising, partial curve, poor fit].

Consider `COc1ccc(/C(N)=N/OC(=O)Cc2ccc(C)cc2)cc1`, for which, under setting [1], the AC50 was 16.4 µM [rising, partial curve, poor fit]. On the same count and under the same terms, in the case of `O=C(COC(=O)CNC(=O)c1ccccc1F)NCCNC(=O)COC(=O)CNC(=O)c1ccccc1F` it was 3.66 µM [rising, full curve, poor fit]; in that of `N/C(CC1CC1(Cl)Cl)=N\OC(=O)c1ccccc1` (stereo unspecified), 10 µM [rising, partial curve]. For `O=C(CSc1ncnc2c1cnn2CCc1ccccc1)Nc1cccc(C(F)(F)F)c1`, under setting [1], the AC50 was 20.6 µM [falling, single point].

As to `COc1ccc(-c2nnc3ccc(SCC(=O)N4CCCCC4)nn23)cc1OC`, the AC50 under setting [1] was 29.1 µM [rising, single point]. The same measure, in the same setting: in the case of `O=C(OCc1ccc(F)cc1)c1cc2ccccc2cc1O` it was 5.01 µM [rising, partial curve].

Turning to `CC(C)(C)c1cc(C(=O)C[n+]2ccc(C(=O)NCCCO)cc2)cc(C(C)(C)C)c1O`, under setting [1], the AC50 is 22.4 µM [rising, single point].

As for `O=S(=O)(Cc1cc(N2CCOCC2)nc(-c2ccccn2)n1)c1ccccc1`, under setting [1], the AC50 was 17.8 µM [falling, partial curve, poor fit]. Still for that read-out and setting: for `COc1cccc(OC)c1NC(=O)CN1CCN(C)CC1` the value was 14.1 µM [rising, single point]; for `Cc1cc(C)n(-c2ccc(NC(=O)C3CCCCN3C(=O)c3cc(C)oc3C)cc2)n1` (stereo unspecified), 0.708 µM [falling, full curve, poor fit]. Still for that read-out and setting: in the case of `C#Cc1ccc([C@@H]2C=C(C(=O)NCc3ccccc3)O[C@H](OCC)[C@H]2CCCO)cc1` it was 31.6 µM [falling, single point].

Turning to `COc1ccc(-c2nnc(NC(=O)c3ccccc3C)o2)cc1`, the half-maximal activity concentration (AC50) under setting [1] is 8.91 µM [falling, partial curve, poor fit] and the AC50 under setting [2] is 35.5 µM [falling, single point]. For the compound `CCN(CC)c1nc2c(c(=O)[nH]c(=O)n2C)n1CCOc1ccccc1`, the AC50 under setting [2] was 5.01 µM [falling, partial curve, poor fit].

With `CC(C)[C@H](NS(=O)(=O)c1ccc2c(c1)OCCO2)C(=O)OCC(=O)Nc1cc(Cl)ccc1Cl`, the AC50 under setting [1] is 29.1 µM [falling, single point]. Take `O=C(NC1CCN(S(=O)(=O)c2cccc(Cl)c2)CC1)C1CCCCC1`: under setting [1], the AC50 was 14.1 µM [rising, single point]. Take `CCCCCOc1ccc(NS(C)(=O)=O)cc1`: under setting [1], the AC50 is 5.62 µM [rising, single point]. For the compound `CC(C)(C)NC(=O)NC(=O)CN1CCN(S(=O)(=O)c2ccccc2)CC1`, the AC50 under setting [1] was 22.4 µM [falling, single point]. Regarding `O=C(Nn1cnc2ccccc2c1=O)c1ccc(Cl)c([N+](=O)[O-])c1`, the AC50 under setting [1] was 5.62 µM [rising, single point]. Regarding `CC(C)OC(=O)c1ccc(N2C(=O)C3CC=CCC3C2=O)cc1` (stereo unspecified), the AC50 under setting [1] was 0.517 µM [rising, full curve, poor fit]. `C#CCSc1nc2sc3c(c2c(=O)n1C)CCC3`: the AC50 under setting [1] is 35.5 µM [rising, single point].

On to `CC(=O)Nc1cccc(/C(C)=N/NC(=O)c2ccc(O)cc2)c1`, for which the AC50 under setting [1] is 2.82 µM [falling, full curve].

Take `NNc1ncnc2c1cnn2-c1ccccc1`: under setting [1], the AC50 is 18.4 µM [falling, partial curve]. Turning to `Cc1ccc(NC(=O)c2ccc3ncsc3c2)cc1S(=O)(=O)N(C)C`, the AC50 under setting [1] is 12.6 µM [falling, partial curve, poor fit]. On the same count and under the same terms, for `Cc1nn(C)c(Cl)c1CN1CCN(CC(C)C)C(CCO)C1` (stereo unspecified) the value was 35.5 µM [falling, single point]. Take `COc1ccc(CCNC(=O)CSc2ncc(C(=O)Nc3ccccc3)c(=O)n2C)cc1`: under setting [1], the AC50 is 29.1 µM [rising, single point].

With `CCSc1nnc(NC(=O)CSc2sc3c(O)cc(=O)[nH]c3c2C#N)s1`, the AC50 under setting [1] was 31.6 µM [falling, single point]. In the case of `O=C(NC1=NCCS1)c1cc(-c2cccs2)nc2ccccc12`, the AC50 reads like this: under setting [1], 10 µM [falling, partial curve, poor fit]; under setting [2], 15.8 µM [rising, partial curve, poor fit]. Regarding `O=C(NC(Cc1c[nH]c2ccccc12)C(=O)N/N=C/c1cccc2ccccc12)c1cccs1` (stereo unspecified), the AC50 under setting [1] was 6.51 µM [falling, partial curve]. In the case of `CC(C)c1ccc2oc(-c3ccc(N)cc3)nc2c1`, under setting [1], the AC50 was 5.62 µM [falling, partial curve, poor fit].

With `COc1ccc(OC)c(Cc2nnc(CCC(=O)N3CCCCC3c3nccs3)o2)c1` (stereo unspecified), the AC50 under setting [1] was 35.5 µM [rising, single point]. Consider `O=C(CSc1ccc2nnc(-c3ccc(Cl)cc3)n2n1)N1CCc2ccccc21`, for which, under setting [2], the AC50 is 2.91 µM [rising, partial curve, poor fit]. For the compound `Cc1cccc(NCc2ccc(Br)cc2)n1`, the AC50 under setting [1] was 14.1 µM [rising, partial curve].

Consider `COc1ccc(/C=N/Nc2ccc([N+](=O)[O-])cc2)cc1O`, for which, under setting [1], the AC50 is 0.794 µM [rising, full curve, poor fit]. `O=C(Nc1ccccc1)NC1CCCCC1`: the AC50 under setting [1] is 0.58 µM [falling, full curve]. Regarding `O=C(Nc1ccc(Cl)cc1F)C1CC1c1ccccc1` (stereo unspecified), the concentration at half-maximal activity (AC50) under setting [1] was 0.447 µM [rising, full curve, poor fit]. Turning to `O=C(NCCc1ccc(Cl)cc1Cl)c1cc([N+](=O)[O-])c[nH]c1=O`, the AC50 under setting [1] is 1.78 µM [falling, full curve, poor fit].

On to `OC(c1ccc(Cl)cc1)c1nccc2ccccc12` (stereo unspecified), for which the AC50 under setting [1] is 12.6 µM [rising, partial curve, poor fit]. Take `COc1ccccc1Nc1nc(N(C)c2ccccc2)nc(N)c1[N+](=O)[O-]`: under setting [1], the AC50 was 2.51 µM [rising, partial curve]. For `Cc1ncc(CSc2nc3ccccc3[nH]2)c(N)n1`, the AC50 under setting [1] was 0.731 µM [falling, partial curve, poor fit]. The same measure, in the same setting: for `O=C(O)CN1C(=O)/C(=C/c2ccc(N3CCCCC3)o2)SC1=S` the value was 22.4 µM [rising, partial curve, poor fit]; for `CN(C)C(=O)C[n+]1ccc(C(N)=O)cc1`, 5.62 µM [falling, single point]; for `O=c1c2[nH]c3ccc(F)cc3c2nc2n1CCCS2`, 20 µM [falling, single point]. As to `CC1CCCCC12NC(=O)N(CC(=O)N1CCN(S(=O)(=O)Cc3ccccc3)CC1)C2=O` (stereo unspecified), the AC50 under setting [1] was 0.517 µM [falling, full curve, poor fit].
